Experimental findings from patent publication US10995260B2, “Methods for determining an optimal surfactant structure for oil recovery” (University of Wyoming, priority 2017, dated 2021) are described below.

This data set is described as follows: Spontaneous imbibition in Edwards limestone cores saturated with crude oil. As to conditions: ambient conditions, alkyl chain n=8-10 (FIG. 9A).

For “CH3(CH2)8-10(OC2H4)6-6.5OH [CH2 8-10, EO 6]”, the “final oil production from limestone samples” value is given as “higher amount of oil than the base surfactant”. Next, “CH3(CH2)8-10(OC2H4)8.3OH [CH2 8-10, EO 8]”: “higher amount of oil than the base surfactant”.
